Measurements taken from PubChem BioAssay AID1332 (Southern Research Institute, 2008).
≈ marks a conversion by molar mass, not a printed value. The list shows a part of the results. The main result of the screen is listed elsewhere. These columns were measured beside it and carry no call.

Test: Confirmatory growth inhibition assay, mycobacterium tuberculosis h37rv, with cytotoxicity (AID 1332);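 for CC50: Vero cells exposed to compounds for 72 hours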;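 for IC50: bacteria incubated 7 days before adding Alamar blue readout reagent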
Details: M. tuberculosis H37Rv growth inhibition; CC50: measured here: Vero cell cytotoxicity; IC50: measured here: IC50 H37Rv replicates

SMILES | IC50 [µg/mL] | CC50 [µg/mL]
O=c1cccc2n1CC1CNC[C@H]2C1 | > 20 | 
O=C(c1ccc(F)cc1)C1CCN(CCn2c(=O)[nH]c3ccccc3c2=O)CC1 | > 20 | 
CCN(CC)C(=O)c1ccc(O)c(OC)c1 | > 20 | 
CCC1(c2ccccc2)C(=O)NCNC1=O | > 20 | 
CC(C)[N+]1(C)[C@@H]2CC[C@@H]1CC(OC(=O)C(CO)c1ccccc1)C2 (some centres undefined) | > 20 | 
CN(C)CCC(c1ccc(Br)cc1)c1ccccn1 (centres undefined) | > 20 | 
COc1ccc2c(c1O)-c1c(OC)c(OC)cc3c1[C@H](C2)N(C)CC3 | > 20 | 
O=C1CC[C@@]2(O)[C@H]3Cc4ccc(O)c5c4[C@@]2(CCN3CC2CC2)[C@H]1O5 | > 20 | 
CN1CCN(CC(=O)N2c3ccccc3C(=O)Nc3cccnc32)CC1 | > 20 | 
CN(CCCCCCCCCCN(C)C(=O)Oc1cccc([N+](C)(C)C)c1)C(=O)Oc1cccc([N+](C)(C)C)c1 | 0.33 | 
CC(=O)N(CC(O)CO)c1c(I)c(C(=O)NCC(O)CO)c(I)c(C(=O)NCC(O)CO)c1I (centres undefined) | > 20 | 
CC1=NS(=O)(=O)c2cc(Cl)ccc2N1 | > 20 | 
CC[C@H](CO)NCCN[C@H](CC)CO | 0.131 (≈ 0.639 µM) | 
C[C@@H]1CCC[C@H](C)N1NC(=O)c1ccc(Cl)c(S(N)(=O)=O)c1 | > 20 | 
Nc1ccc(S(=O)(=O)Nc2nccs2)cc1 | 0.653 (≈ 2.56 µM) | 
CC(CNC1CCCCC1)OC(=O)c1ccccc1 (centres undefined) | > 20 | 
CCOC1O[C@H]([C@@H](COCc2ccccc2)OCc2ccccc2)[C@H](OCc2ccccc2)[C@H]1O (some centres undefined) | > 20 | 
CC(=O)Nc1c(I)c(C(=O)N[C@H]2C(O)O[C@H](CO)[C@@H](O)[C@@H]2O)c(I)c(N(C)C(C)=O)c1I (some centres undefined) | > 20 | 
CCN(CC)CCNC(=O)c1ccc(N)cc1 | > 20 | 
CC(=O)c1cc2ccccc2oc1=O | > 20 | 
CN1[C@@H]2CC(=O)C[C@H]1[C@H](O)C2 | > 20 | 
CCCCOc1cc(C(=O)OCCN(CC)CC)ccc1N | > 20 | 
CC(=O)Nc1nnc(S(N)(=O)=O)s1 | > 20 | 
COc1cc(CNC(=O)CCCC/C=C/C(C)C)ccc1O | > 20 | 
CO/N=C(\C(=O)N[C@@H]1C(=O)N2C(C(=O)O)=C(COC(C)=O)CS[C@H]12)c1csc(N)n1 | > 20 | 

SMILES | IC50 [µg/mL] | CC50 [µg/mL]
CC(C(O)c1ccc(O)cc1)N1CCC(Cc2ccccc2)CC1 (centres undefined) | > 20 | 
CN(C(=O)CN(CCO)CC(=O)N(C)C(C)(C)Cc1ccccc1)C(C)(C)Cc1ccccc1 | 7.88 (≈ 16.9 µM) | 
COc1cc(NS(=O)(=O)c2ccc(N)cc2)ncn1 | 2.42 (≈ 8.63 µM) | 
CCCCC(CC)CN=C(N)NC(N)=NCCCCCCN=C(N)NC(N)=NCC(CC)CCCC (centres undefined) | 0.563 (≈ 1.11 µM) | 3.88 (≈ 7.63 µM)
COc1ccc(Cl)cc1C(=O)NCCc1ccc(S(=O)(=O)NC(=O)NC2CCCCC2)cc1 | > 20 | 
CC#C[C@]1(O)CC[C@H]2[C@@H]3CCC4=CC(=O)CCC4=C3[C@@H](c3ccc(N(C)C)cc3)C[C@@]21C | > 20 | 
CCN(CCCCOC(=O)c1ccc(OC)c(OC)c1)C(C)Cc1ccc(OC)cc1 (centres undefined) | > 20 | 
Cc1cc(C(C)(C)C)cc(C)c1CC1=NCCN1 | > 20 | 
CCN(CC)CCOCCOC(=O)C1(c2ccccc2)CCCC1 | > 20 | 
N[C@H]1CONC1=O | 0.855 (≈ 8.38 µM) | 
CCCCC1C(=O)N(c2ccccc2)N(c2ccc(O)cc2)C1=O (centres undefined) | > 20 | 
CO[C@H](C)C(O)(C(=O)OCC1=CCN2CC[C@H](O)[C@@H]12)C(C)C (some centres undefined) | > 20 | 
COc1cc2nc(N3CCN(C(=O)C4COc5ccccc5O4)CC3)nc(N)c2cc1OC (centres undefined) | > 20 | 
O=c1c(O)c(-c2ccc(O)cc2)oc2cc(O)cc(O)c12 | > 20 | 
CCCCCC[C@H]1C(=O)O[C@H](C)C(NC(=O)c2cccc(NC=O)c2O)C(=O)O[C@@H](C)[C@@H]1OC(=O)CC(C)C (some centres undefined) | > 20 | > 6
C=CCOc1ccccc1OCC(O)CNC(C)C (centres undefined) | > 20 | 
NC[C@H]1O[C@H](O[C@H]2[C@H](O)[C@@H](O[C@H]3O[C@H](CO)[C@@H](O)[C@H](N)[C@H]3O)[C@H](N)C[C@@H]2N)[C@H](N)C[C@@H]1O | 1.2 (≈ 2.57 µM) | 
CC(C)NCC(O)COc1cccc2[nH]ccc12 (centres undefined) | > 20 | 
C[C@]12CCC(=O)C=C1C=C[C@@H]1[C@@H]2CC[C@@]2(C)[C@H]1CC[C@@]2(O)CCC(=O)O | > 20 | 
OC(CCN1CCCC1)(c1ccccc1)C1CCCCC1 (centres undefined) | > 20 | 
CC(CN(C)C)CN1c2ccccc2CCc2ccccc21 (centres undefined) | > 20 | 
CC(=O)O[C@]1(C(C)=O)CC[C@H]2[C@@H]3C=C(Cl)C4=CC(=O)C5CC5[C@]4(C)[C@H]3CC[C@@]21C (some centres undefined) | > 20 | 
CC(C)(C)NC(=O)[C@H]1CC[C@H]2[C@@H]3CC[C@H]4NC(=O)C=C[C@]4(C)[C@H]3CC[C@]12C | > 20 | 
Nc1nc(N)c2nc(-c3ccccc3)c(N)nc2n1 | > 20 | 2.85 (≈ 11.3 µM)
C=C1CC[C@H](O)C/C1=C/C=C1\CCC[C@]2(C)[C@@H]([C@H](C)/C=C/[C@H](C)C(C)C)CC[C@@H]12 | > 20 | 

Filtered by structure: the entries above with a halogen (8)
SMILES | IC50 [µg/mL] | CC50 [µg/mL]
O=C(c1ccc(F)cc1)C1CCN(CCn2c(=O)[nH]c3ccccc3c2=O)CC1 | > 20 | 
CN(C)CCC(c1ccc(Br)cc1)c1ccccn1 (centres undefined) | > 20 | 
CC(=O)N(CC(O)CO)c1c(I)c(C(=O)NCC(O)CO)c(I)c(C(=O)NCC(O)CO)c1I (centres undefined) | > 20 | 
CC1=NS(=O)(=O)c2cc(Cl)ccc2N1 | > 20 | 
C[C@@H]1CCC[C@H](C)N1NC(=O)c1ccc(Cl)c(S(N)(=O)=O)c1 | > 20 | 
CC(=O)Nc1c(I)c(C(=O)N[C@H]2C(O)O[C@H](CO)[C@@H](O)[C@@H]2O)c(I)c(N(C)C(C)=O)c1I (some centres undefined) | > 20 | 
COc1ccc(Cl)cc1C(=O)NCCc1ccc(S(=O)(=O)NC(=O)NC2CCCCC2)cc1 | > 20 | 
CC(=O)O[C@]1(C(C)=O)CC[C@H]2[C@@H]3C=C(Cl)C4=CC(=O)C5CC5[C@]4(C)[C@H]3CC[C@@]21C (some centres undefined) | > 20 | 

Additional entries.

SMILES | IC50 [µg/mL] | CC50 [µg/mL]
CCCCOc1ccc(C(=O)CCN2CCCCC2)cc1 | > 20 | 
C(#CCN1CCCC1)CN1CCCC1 | > 20 | 
Cc1c(Nc2ncccc2C(=O)O)cccc1C(F)(F)F | > 20 | 
C[C@H]1CC[C@]2(NC1)O[C@H]1C[C@H]3[C@@H]4CC[C@H]5C[C@@H](O)CC[C@]5(C)[C@H]4CC[C@]3(C)[C@H]1[C@@H]2C | > 20 | 
C[C@H](CS)C(=O)N1CCC[C@H]1C(=O)O | > 20 | 
CC1(C)O[C@@H]2C[C@H]3[C@@H]4C[C@H](F)C5=CC(=O)C=C[C@]5(C)[C@H]4[C@@H](O)C[C@]3(C)[C@]2(C(=O)CO)O1 | > 20 | 
CCCCc1oc2ccccc2c1C(=O)c1cc(I)c(OCCN(CC)CC)c(I)c1 | 5 (≈ 7.75 µM) | > 6
CCN1CCCC1CNC(=O)c1cc(S(N)(=O)=O)ccc1OC (centres undefined) | > 20 | 
COP(=O)(OC)C(O)C(Cl)(Cl)Cl (centres undefined) | > 20 | 
CC[C@H]1C2C[C@H]3[C@@H]4N(C)c5ccccc5C45C[C@H](C2[C@H]5O)N3[C@@H]1O (some centres undefined) | > 20 | 
CC(=O)O[C@H]1C[C@H](O[C@H]2[C@@H](O)C[C@H](O[C@H]3[C@@H](O)C[C@H](O[C@H]4CC[C@@]5(C)[C@H](CC[C@]6(C)[C@]5(C)C[C@@H](O)[C@]5(C)[C@@H](C7=CC(=O)OC7)CC[C@@]56O)C4)O[C@@H]3C)O[C@@H]2C)O[C@H](C)[C@H]1O[C@@H]1O[C@H](CO)[C@@H](O)[C@H](O)[C@H]1O | > 20 | 0.654 (≈ 0.645 µM)
NNC(=O)c1ccncc1 | < 0.04 | 
CC1(C)O[C@@H]2C[C@H]3[C@@H]4C[C@H](F)C5=CC(=O)CC[C@]5(C)[C@H]4[C@@H](O)C[C@]3(C)[C@]2(C(=O)CO)O1 | > 20 | 
C=CCN1CC[C@]23c4c5ccc(O)c4O[C@H]2C(=O)CC[C@@]3(O)[C@H]1C5 | > 20 | 
CN1CCCN=C1/C=C/c1cccs1 | > 20 | 
CC12CC3CC(C)(C1)CC(N)(C3)C2 | > 20 | > 6
C#C[C@]1(O)CC[C@H]2[C@@H]3CCC4=Cc5oncc5C[C@]4(C)[C@H]3CC[C@@]21C | > 20 | 
O=C(Nc1ccc([N+](=O)[O-])cc1Cl)c1cc(Cl)ccc1O | 0.0695 (≈ 0.212 µM) | 0.188 (≈ 0.575 µM)
CN1Cc2c(ccc3c2OCO3)[C@@H]2[C@H]1c1cc3c(cc1C[C@@H]2O)OCO3 | > 20 | 2.81 (≈ 7.96 µM)
C[N+]1([O-])[C@@H]2CC(OC(=O)[C@H](CO)c3ccccc3)C[C@H]1[C@@H]1O[C@@H]12 (some centres undefined) | > 20 | 
CCN(CC)CCNC(=O)c1cc(Br)c(N)cc1OC | > 20 | 
OC(CCN1CCCCC1)(c1ccccc1)c1ccccc1 | > 20 | 
COc1c2c(cc3c1OCO3)CCN(C)C2 | > 20 | 
C#CC1(O)CC[C@H]2[C@@H]3CCC4=CCCC[C@@H]4[C@H]3CC[C@@]21C (some centres undefined) | > 20 | > 6
C[N+](C)(C)CCOC(N)=O | > 20 | 

SMILES | IC50 [µg/mL] | CC50 [µg/mL]
CCOC(=O)C1=C(C)NC(C)=C(C(=O)OC)C1c1cccc(Cl)c1Cl (centres undefined) | > 20 | 
C[C@H](CCC(=O)O)[C@H]1CC[C@H]2[C@@H]3C(=O)C[C@@H]4CC(=O)CC[C@]4(C)[C@H]3CC(=O)[C@]12C | > 20 | 
CC(=O)O[C@H]1C[C@@H]2CC[C@@H]3[C@H](CC[C@@]4(C)[C@H]3C[C@H]([N+]3(C)CCCCC3)[C@@H]4OC(C)=O)[C@@]2(C)C[C@@H]1[N+]1(C)CCCCC1 | > 20 | 
O=C1c2c(O)ccc(O)c2C(=O)c2c(NCCNCCO)ccc(NCCNCCO)c21 | > 20 | 0.255 (≈ 0.574 µM)
O=C(O)CCC(=O)c1ccc(-c2ccccc2)cc1 | > 20 | 
CN1CCN2c3ccccc3Cc3ccccc3C2C1 (centres undefined) | > 20 | 
N[C@@H](Cc1ccc(O)c(O)c1)C(=O)O | > 20 | 
N=c1nc(N2CCCCC2)cc(N)n1O | > 20 | 
Cc1cc(C=Cc2ccc3cc(N(C)C)ccc3[n+]2C)c(C)n1-c1ccccc1 | 0.145 | 0.262
O=c1c2ccccc2[se]n1-c1ccccc1 | 2.02 (≈ 7.38 µM) | 
CCCNC(C)(C)COC(=O)c1ccccc1 | > 20 | 
CCC1(C)CC(=O)NC1=O (centres undefined) | > 20 | 
CN(C)CCOC(=O)C(c1ccccc1)C1(O)CCCC1 (centres undefined) | > 20 | 
CC1=CC(=O)C2=C(C)CC[C@@H]3[C@H](OC(=O)[C@H]3C)[C@@H]12 | > 20 | 
CCc1cc(Cl)c(OC)c(C(=O)NC[C@@H]2CCCN2CC)c1O | > 20 | 
CCC(=O)O[C@]1(C(=O)SCF)[C@H](C)C[C@H]2[C@@H]3C[C@H](F)C4=CC(=O)C=C[C@]4(C)[C@@]3(F)[C@@H](O)C[C@@]21C | > 20 | 
Nc1[nH]c(=O)ncc1F | > 20 | 
NCC(O)c1ccc(O)cc1 (centres undefined) | > 20 | 
NC(N)=NCCCCN=C(N)N | > 20 | 
CC[N+](C)(CC)CCC[n+]1c(-c2ccccc2)c2cc(N)ccc2c2ccc(N)cc21 | > 20 | 
O=C(O)c1ccccc1Nc1cccc(C(F)(F)F)c1 | > 20 | 
